Experimental data published in PMC7862700.
This is a selection; strong and weak results do not stand in their true shares. At the low end of the ranking, values are background and their order means little.

Amino acid sequences for entries named in this document (tags omitted). A change or cut given only in a name is not applied to a line headed by its entry.
UniProt Q9Y603: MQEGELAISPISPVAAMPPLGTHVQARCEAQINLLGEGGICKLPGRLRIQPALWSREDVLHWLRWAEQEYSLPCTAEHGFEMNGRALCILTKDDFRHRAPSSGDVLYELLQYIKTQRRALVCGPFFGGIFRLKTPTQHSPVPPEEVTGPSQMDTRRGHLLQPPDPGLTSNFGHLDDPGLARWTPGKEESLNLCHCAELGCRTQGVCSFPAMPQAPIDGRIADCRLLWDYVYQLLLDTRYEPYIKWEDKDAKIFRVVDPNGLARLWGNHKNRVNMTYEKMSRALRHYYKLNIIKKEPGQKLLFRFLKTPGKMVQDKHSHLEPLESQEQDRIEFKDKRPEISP

Key:
[1] = molecular target: T1, ELF3 (UniProt P78545); assay: DAPPL (digital affinity profiling via proximity ligation, sequencing); conditions: 10 mM Tris-HCl pH 7.5, 50 mM NaCl, 1 mM DTT, 4% glycerol, room temperature, 30 min; GST-TFs on glutathione beads, 16-mer random dsDNA library, 0.1% …; high values mean tight binding; double strand, one strand shown; scale: fold enrichment (6-mer frequency, TF over GST control)
T1 sequence: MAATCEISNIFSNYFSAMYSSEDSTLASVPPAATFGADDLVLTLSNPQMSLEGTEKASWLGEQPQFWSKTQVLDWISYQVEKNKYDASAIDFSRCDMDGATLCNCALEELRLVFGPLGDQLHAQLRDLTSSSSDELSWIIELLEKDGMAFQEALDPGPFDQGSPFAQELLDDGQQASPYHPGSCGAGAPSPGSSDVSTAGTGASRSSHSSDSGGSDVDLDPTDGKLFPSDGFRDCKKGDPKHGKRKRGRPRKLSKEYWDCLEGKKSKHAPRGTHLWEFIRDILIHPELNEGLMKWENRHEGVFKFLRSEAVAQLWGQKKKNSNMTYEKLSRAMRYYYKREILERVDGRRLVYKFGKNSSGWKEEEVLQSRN

[2] = molecular target: ETV7 (UniProt Q9Y603); assay: as above; conditions: 10 mM Tris-HCl pH 7.5, 50 mM NaCl, 1 mM DTT, 4% glycerol, room temperature, 30 min; GST-TFs on glutathione beads, 16-mer random dsDNA library, 0.1% …; high values mean tight binding; double strand, one strand shown; scale: fold enrichment (6-mer frequency, TF over GST control)

Row | Sequence | binding signal [1] | binding signal [2]
1 | CCGCCC | 1.28 | –
2 | TCGATT | 1.1 | –
3 | CATCTA | 1.33 | –
4 | TAAAGA | 1.2 | –
5 | CATTCC | 1.2 | –
6 | GAATAC | 0.923 | –
7 | CTCTGA | 1.09 | –
8 | ATGGCT | 1.33 | –
9 | TACACG | 1.15 | –
10 | CCTCAC | 1.2 | –
11 | GGTTTC | 1.31 | –
12 | AATTAG | 1.13 | –
13 | TCTCCC | 1.78 | –
14 | TCTCGC | 1.88 | –
15 | ACGTTC | 1.25 | –
16 | ATCCGC | 1.62 | –
17 | CGTATG | 0.952 | –
18 | TATGGA | 1.15 | –
19 | CGTTCA | 1.13 | –

Row | Sequence | binding signal [1] | binding signal [2]
20 | CTCCTA | 1.31 | –
21 | TAAAAG | 1.21 | –
22 | CGCCGA | 1.03 | –
23 | CTGCCC | 1.09 | –
24 | CTCTGT | 1.4 | –
25 | ATGTGT | 0.983 | –
26 | GTCACA | 1.08 | –
27 | CCTGGT | 1.13 | –
28 | TCTAAT | 1.16 | –
29 | TACTCG | 1.29 | –
30 | TGCGAT | 1.03 | –
31 | AATGAG | 1.25 | –
32 | CTGATC | 1.25 | –
33 | CTGTTT | 1.14 | –
34 | ATCTCC | 1.3 | –
35 | AGAAAT | 1.2 | –
36 | GATTCC | 1.09 | –
37 | TATCCG | 2.33 | –
38 | TTTTGT | 1.43 | –

Row | Sequence | binding signal [1] | binding signal [2]
39 | TAAACG | 1.07 | –
40 | TAAAGT | 1.13 | 1.25
41 | TAATGC | 1.23 | –
42 | CGATCC | 1.08 | 1.1
43 | CCCATG | 0.962 | 0.97
44 | GATCCT | 1.03 | 1.2
45 | AGCCCT | 1.1 | 0.971
46 | ACTTAT | 1.27 | 1.21
47 | ATCGTC | 0.795 | 0.976
48 | GTTACG | 0.986 | 1.02
49 | CTAATG | 1.27 | 1.3
50 | ACTCCT | 1.3 | –
51 | TCTACG | 1.5 | 1.36
52 | TGTAGC | 0.922 | 1.12
53 | GCTTTA | 1.13 | 1.19
54 | ATTCAG | 0.999 | 1.02
55 | GTCCCT | 1.23 | 1.22
56 | TTCAAA | 1.43 | 1.19
